In article PMC7603469, “The biologically functional identification of a novel TIM3-binding peptide P26 in vitro and in vivo” (Cancer Chemotherapy and Pharmacology, 2020) one finds binding data, which are given here for one substance.

Chains of the proteins cited; added tags and fusions are not shown. Residues count along the entry.
UniProt Q8TDQ0, residues 22-301: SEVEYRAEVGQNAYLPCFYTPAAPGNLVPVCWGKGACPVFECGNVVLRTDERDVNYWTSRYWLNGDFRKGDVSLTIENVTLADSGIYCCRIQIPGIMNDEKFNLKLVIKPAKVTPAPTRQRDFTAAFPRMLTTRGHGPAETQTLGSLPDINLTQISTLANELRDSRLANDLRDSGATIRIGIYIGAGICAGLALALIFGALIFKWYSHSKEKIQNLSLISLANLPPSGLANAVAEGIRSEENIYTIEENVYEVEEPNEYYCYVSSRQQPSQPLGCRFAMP

Results are given in words; binding and its absence hold for the method and conditions named. Some results given as binding are weak or reduced against the parent protein; the word gives no strength.

The target in the experiment is human TIM3 stably expressed on 293T cells (293T-TIM3) (human) (UniProt Q8TDQ0). The experiment is described as follows: flow cytometry on cells; 2 × 10^6 293T-TIM3 or 293T cells, blocked with 1% BSA-PBS, incubated 30 min at room temperature with FITC-conjugated P26 (25 and 50 µg/mL) and/or Gal-9 (10 µg/mL); only the binder purified.

Take “FITC-Gal-9 (from UniProt O00182 1-355) (ligand)”: the binding result is listed as “binds”.
